Measurements from the supplement of paper PMC10849652.
Some of the results follow.

Protein sequences, listed by entry. Tags and fused reporters are not part of them. Lines headed by an entry give the natural chain unless they say otherwise; changes in a name come on top.
UniProt Q16385, whole entry, looked up: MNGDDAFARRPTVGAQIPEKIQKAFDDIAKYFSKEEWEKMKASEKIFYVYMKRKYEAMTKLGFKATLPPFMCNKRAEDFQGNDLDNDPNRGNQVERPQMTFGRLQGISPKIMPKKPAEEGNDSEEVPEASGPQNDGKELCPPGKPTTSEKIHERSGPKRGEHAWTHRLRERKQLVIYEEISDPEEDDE
UniProt Q08AE8, whole entry, looked up: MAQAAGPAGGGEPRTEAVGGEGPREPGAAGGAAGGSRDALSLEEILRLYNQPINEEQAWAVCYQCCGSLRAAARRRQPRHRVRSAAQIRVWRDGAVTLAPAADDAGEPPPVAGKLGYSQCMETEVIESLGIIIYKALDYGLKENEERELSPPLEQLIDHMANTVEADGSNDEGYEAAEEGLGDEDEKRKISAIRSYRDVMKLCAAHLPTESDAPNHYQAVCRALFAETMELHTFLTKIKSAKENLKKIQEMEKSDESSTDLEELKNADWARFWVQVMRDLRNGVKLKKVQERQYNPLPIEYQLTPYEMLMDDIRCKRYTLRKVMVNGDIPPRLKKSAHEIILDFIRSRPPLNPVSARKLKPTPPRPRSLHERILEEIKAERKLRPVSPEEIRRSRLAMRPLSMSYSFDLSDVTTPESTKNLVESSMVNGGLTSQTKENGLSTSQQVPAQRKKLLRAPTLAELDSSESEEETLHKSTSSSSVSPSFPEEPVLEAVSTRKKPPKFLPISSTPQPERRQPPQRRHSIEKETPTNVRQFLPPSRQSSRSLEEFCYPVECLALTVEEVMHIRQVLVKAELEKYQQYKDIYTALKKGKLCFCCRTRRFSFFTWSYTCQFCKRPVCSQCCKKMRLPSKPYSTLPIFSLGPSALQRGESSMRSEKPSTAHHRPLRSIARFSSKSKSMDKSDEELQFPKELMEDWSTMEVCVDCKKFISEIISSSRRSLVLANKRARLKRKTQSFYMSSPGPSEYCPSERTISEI
UniProt Q14849, whole entry, looked up: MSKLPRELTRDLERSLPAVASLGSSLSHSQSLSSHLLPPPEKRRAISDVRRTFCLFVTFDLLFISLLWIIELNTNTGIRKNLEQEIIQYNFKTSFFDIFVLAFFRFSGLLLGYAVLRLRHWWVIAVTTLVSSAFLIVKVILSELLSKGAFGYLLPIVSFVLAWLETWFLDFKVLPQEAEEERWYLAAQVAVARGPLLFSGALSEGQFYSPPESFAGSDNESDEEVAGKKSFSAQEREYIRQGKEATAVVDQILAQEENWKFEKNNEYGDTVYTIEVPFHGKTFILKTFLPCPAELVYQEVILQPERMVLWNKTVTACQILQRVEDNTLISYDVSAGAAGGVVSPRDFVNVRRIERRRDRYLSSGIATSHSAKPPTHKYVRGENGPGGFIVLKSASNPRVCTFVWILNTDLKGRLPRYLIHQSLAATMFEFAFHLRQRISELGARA
UniProt O15270: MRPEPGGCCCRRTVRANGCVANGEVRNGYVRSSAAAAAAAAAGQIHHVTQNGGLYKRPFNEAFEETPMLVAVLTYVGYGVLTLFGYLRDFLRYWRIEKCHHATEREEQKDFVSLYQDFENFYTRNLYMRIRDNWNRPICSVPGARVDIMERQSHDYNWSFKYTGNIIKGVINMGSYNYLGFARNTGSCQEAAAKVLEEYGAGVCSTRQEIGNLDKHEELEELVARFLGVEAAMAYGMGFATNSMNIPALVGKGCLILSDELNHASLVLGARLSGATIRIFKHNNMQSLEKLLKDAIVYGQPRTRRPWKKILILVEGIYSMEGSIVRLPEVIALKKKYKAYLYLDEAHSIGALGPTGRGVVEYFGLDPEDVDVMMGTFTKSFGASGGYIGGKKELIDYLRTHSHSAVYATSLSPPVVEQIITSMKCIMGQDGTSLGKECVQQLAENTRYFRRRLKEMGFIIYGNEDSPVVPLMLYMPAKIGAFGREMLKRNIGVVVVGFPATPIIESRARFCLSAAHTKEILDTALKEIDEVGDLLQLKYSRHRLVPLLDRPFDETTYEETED
UniProt Q96SB4, whole entry, looked up: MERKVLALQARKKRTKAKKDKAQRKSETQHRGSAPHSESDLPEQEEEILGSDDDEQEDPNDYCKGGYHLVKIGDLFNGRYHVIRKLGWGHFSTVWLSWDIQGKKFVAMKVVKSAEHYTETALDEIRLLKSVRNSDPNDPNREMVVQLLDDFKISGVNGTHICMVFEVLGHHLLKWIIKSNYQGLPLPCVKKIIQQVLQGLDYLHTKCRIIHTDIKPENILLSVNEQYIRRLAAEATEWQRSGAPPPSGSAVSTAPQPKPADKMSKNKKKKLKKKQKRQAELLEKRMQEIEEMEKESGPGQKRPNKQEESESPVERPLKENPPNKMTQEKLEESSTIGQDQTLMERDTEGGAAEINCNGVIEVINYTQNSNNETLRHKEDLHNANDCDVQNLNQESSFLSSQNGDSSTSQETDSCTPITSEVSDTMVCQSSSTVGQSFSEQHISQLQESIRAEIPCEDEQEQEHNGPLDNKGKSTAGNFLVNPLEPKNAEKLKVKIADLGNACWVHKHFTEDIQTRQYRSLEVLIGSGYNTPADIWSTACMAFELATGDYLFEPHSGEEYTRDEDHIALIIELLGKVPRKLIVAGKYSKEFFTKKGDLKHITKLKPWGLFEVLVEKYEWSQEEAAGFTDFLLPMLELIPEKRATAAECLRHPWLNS
UniProt Q9Y657, whole entry, looked up: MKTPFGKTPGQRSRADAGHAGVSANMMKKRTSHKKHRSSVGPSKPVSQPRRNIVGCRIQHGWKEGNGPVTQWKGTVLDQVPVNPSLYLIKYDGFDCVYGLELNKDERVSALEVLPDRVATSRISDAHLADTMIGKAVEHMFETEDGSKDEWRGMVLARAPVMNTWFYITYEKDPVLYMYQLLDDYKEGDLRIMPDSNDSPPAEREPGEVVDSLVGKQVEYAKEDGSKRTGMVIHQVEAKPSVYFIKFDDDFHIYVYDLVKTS
UniProt Q8NBT2: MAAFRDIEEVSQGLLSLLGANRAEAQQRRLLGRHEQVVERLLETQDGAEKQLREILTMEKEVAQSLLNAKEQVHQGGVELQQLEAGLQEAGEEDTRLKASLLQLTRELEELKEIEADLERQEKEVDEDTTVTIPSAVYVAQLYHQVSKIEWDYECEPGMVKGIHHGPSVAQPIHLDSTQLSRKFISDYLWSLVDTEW
UniProt Q69YQ0: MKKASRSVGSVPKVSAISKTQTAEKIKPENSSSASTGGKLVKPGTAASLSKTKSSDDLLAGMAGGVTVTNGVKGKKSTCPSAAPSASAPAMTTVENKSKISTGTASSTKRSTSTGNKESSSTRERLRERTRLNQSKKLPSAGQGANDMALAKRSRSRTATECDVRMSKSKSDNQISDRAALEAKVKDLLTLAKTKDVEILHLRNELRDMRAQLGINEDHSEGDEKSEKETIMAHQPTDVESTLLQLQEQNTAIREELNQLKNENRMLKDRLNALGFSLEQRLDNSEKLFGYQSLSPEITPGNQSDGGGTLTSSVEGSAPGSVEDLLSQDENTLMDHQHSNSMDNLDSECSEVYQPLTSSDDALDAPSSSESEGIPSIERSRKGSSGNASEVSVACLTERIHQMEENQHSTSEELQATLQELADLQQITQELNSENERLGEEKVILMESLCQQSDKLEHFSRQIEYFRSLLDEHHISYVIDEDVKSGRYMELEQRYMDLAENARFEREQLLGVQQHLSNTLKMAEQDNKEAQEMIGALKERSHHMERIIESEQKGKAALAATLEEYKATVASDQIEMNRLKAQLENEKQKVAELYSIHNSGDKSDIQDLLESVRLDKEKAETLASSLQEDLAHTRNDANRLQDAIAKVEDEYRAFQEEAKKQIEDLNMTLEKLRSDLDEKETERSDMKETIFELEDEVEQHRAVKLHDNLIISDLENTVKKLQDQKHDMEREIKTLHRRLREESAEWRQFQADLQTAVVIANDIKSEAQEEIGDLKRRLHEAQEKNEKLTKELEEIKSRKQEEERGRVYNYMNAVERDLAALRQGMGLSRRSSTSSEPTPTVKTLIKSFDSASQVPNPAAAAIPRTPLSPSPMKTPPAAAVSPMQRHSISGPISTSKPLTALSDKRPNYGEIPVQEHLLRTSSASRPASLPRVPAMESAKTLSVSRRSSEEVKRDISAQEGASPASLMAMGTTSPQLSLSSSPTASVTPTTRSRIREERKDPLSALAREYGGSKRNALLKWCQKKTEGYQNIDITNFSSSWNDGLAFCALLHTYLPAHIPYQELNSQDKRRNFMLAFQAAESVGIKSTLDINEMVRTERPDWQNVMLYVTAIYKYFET
UniProt Q8NB90: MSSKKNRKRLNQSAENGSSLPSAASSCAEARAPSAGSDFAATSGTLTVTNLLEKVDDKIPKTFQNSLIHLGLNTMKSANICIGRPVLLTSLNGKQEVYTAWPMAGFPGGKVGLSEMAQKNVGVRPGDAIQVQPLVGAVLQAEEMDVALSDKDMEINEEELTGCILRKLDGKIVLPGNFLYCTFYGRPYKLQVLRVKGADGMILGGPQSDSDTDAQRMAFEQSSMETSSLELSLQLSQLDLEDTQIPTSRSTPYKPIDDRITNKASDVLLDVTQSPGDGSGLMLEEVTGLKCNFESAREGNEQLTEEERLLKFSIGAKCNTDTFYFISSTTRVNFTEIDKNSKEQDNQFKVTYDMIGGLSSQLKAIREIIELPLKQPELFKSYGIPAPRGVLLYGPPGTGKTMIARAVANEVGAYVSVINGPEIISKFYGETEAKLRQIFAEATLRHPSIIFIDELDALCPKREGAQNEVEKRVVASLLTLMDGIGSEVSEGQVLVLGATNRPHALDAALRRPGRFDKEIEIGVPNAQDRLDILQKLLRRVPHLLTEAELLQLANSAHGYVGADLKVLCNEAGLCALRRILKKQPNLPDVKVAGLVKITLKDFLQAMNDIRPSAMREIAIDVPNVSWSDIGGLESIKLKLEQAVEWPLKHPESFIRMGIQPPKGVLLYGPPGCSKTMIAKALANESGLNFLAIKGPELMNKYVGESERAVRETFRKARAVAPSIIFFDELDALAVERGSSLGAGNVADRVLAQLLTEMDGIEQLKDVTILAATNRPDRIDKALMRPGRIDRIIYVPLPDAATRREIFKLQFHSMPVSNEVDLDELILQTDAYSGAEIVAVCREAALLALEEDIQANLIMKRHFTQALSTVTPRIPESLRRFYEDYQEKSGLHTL
UniProt Q9Y5M8: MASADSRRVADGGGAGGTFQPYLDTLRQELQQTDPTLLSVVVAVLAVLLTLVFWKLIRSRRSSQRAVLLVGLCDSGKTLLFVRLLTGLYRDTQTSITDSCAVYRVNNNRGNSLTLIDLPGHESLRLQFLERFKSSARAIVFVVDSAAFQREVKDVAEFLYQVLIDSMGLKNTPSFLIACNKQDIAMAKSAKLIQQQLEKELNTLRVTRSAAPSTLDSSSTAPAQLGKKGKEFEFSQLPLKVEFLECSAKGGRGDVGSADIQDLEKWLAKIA
UniProt Q05519: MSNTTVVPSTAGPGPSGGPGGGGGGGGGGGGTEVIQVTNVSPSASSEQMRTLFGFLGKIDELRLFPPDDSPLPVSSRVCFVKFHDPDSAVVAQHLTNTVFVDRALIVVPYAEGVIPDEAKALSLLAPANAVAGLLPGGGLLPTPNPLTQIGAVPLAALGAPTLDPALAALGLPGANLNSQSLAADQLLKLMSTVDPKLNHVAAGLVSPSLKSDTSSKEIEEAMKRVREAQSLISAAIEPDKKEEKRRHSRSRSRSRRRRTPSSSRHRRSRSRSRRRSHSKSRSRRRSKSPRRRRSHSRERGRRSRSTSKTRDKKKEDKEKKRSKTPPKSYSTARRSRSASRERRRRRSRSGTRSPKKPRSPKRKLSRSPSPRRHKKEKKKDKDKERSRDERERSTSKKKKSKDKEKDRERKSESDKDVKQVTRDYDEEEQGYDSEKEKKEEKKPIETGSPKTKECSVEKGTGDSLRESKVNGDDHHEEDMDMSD
UniProt Q92783: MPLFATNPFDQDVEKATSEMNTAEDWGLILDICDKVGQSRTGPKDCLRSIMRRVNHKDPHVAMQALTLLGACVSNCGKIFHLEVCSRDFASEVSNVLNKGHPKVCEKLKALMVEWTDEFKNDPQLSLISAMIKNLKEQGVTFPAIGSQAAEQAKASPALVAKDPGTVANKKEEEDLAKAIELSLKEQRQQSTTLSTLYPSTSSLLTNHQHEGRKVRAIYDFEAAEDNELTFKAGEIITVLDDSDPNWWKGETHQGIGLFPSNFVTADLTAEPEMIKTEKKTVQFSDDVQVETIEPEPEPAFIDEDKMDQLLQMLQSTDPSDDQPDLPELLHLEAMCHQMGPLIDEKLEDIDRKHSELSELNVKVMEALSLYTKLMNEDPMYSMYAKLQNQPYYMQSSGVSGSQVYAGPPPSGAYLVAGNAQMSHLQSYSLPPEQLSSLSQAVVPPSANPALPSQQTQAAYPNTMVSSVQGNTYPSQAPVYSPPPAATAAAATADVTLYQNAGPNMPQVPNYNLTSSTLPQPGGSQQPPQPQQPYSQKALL

How the values were obtained:
Experiment in all cases: log2 fold change, soluble protein after heating vs DMSO (PISA); higher = thermal stabilisation; K562 lysate, 10 uM; active = over 0.2 and 3.5 SD of the protein, either way, in both replicates (recomputed)
erlotinib = compound: C#Cc1cccc(Nc2ncnc3cc(OCCOC)c(OCCOC)cc23)c1 [erlotinib]
Summary of the method: (§1)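 Dounce homogenisation of K562 pellets in PBS pH 7.4 with 1 mM MgCl2 produced a crude extract, used at 1 mg/mL protein. Exposure to 10 μM compound lasted 30 min, and aliquots were then heated for 3 min across 48°C-58°C, pooled and brought to 0.5% NP-40 at 4°C. The supernatant after 21,000xg for 90 min was quantified by TMTpro 16plex LC-MS/MS with channel sums equalised. Duplicate values are given as log-two fold change in thermal stability relative to solvent controls.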

[1] = compound: C/C(=N\NC(=O)C1=CC(=CC=C1)S(=O)(=O)N2CCOCC2)/C3=C(C=CC(=C3)Cl)O
Summary of the method: as §1

[2] = compound: C1=CC(=CC=C1C2=NC3=C(N2)C=C(C=C3)C(=O)N)OC4=CC=C(C=C4)Cl
Summary of the method: as §1

[3] = compound: C1=CC2=C(C=CC(=C2)/C=C\3/C(=O)NC(=NCC4=CC=CS4)S3)N=C1
Summary of the method: as §1

[4] = compound: C1=CC2=NC=CN=C2C=C1/C=C/3\C(=O)NC(=O)S3
Summary of the method: as §1

[5] = compound: C1=CC=C(C=C1)C2=NC(=C(N2)C3=CC=NC=C3)C4=CC(=C(C=C4)Cl)O
Summary of the method: as §1

[6] = compound: C1=CC=C2C(=C1)C3=NNC4=CC=CC(=C43)C2=O
Summary of the method: as §1

[7] = compound: C1CCN(C1)C(=O)NC2=CC=CC(=C2)NC3=NC=C(C(=N3)NCCC4=CN=CN4)Br
Summary of the method: as §1

[8] = compound: C1CN(CCC1(CC2=CC=C(C=C2)Cl)N)C3=NC=NC4=C3C=CN4
Summary of the method: as §1

IRAK-1-4 Inhibitor I = compound: C1COCCN1CCN2C3=CC=CC=C3N=C2NC(=O)C4=CC(=CC=C4)[N+](=O)[O-] [IRAK-1-4 Inhibitor I]
Summary of the method: as §1

ibrutinib = compound: C=CC(=O)N1CCC[C@@H](n2nc(-c3ccc(Oc4ccccc4)cc3)c3c(N)ncnc32)C1 [ibrutinib]
Summary of the method: as §1

[9] = compound: CC(=O)c1cnc2ccc(-c3cc(Cl)c(O)c(Cl)c3)nc2c1N[C@H]1CC[C@H](CN(C)C)CC1
Summary of the method: as §1

ralimetinib = compound: CC(C)(C)Cn1c(N)nc2ccc(-c3[nH]c(C(C)(C)C)nc3-c3ccc(F)cc3)nc21 [ralimetinib]
Summary of the method: as §1

[10] = compound: CC(C)(O)CC(=O)NCCn1ccc2ncnc(Nc3ccc(Oc4cccc(C(F)(F)F)c4)c(Cl)c3)c21
Summary of the method: as §1

[11] = compound: CC(C)C1=C2N=C(C=C(N2N=C1)NCC3=CC=CC=C3)NCCCCCCN
Summary of the method: as §1

[12] = compound: CC1=C(C(CC(=O)N1)C2=CC=C(C=C2)C(F)(F)F)C(=O)NC3=C(C=C4C(=C3)C=NN4)F
Summary of the method: as §1

[13] = compound: CC1=C(C2=C(C=C1)C(=O)C3=CC=CC=C3N2CCCN)C
Summary of the method: as §1

[14] = compound: CC1=C(C=C(C=C1)NC(=O)C2=CC(=CC=C2)C(C)(C)C#N)NC3=CC4=C(C=C3)N=CN(C4=O)C
Summary of the method: as §1

[15] = compound: CC1=C(C=C(C=C1)NC(=O)C2=CC(=CC=C2)N(C)C)NC(=O)C3=CC=C(C=C3)O
Summary of the method: as §1

[16] = compound: CC1=CC=C(C=C1)SC2=C3C=C(SC3=CN=C2)C(=O)N
Summary of the method: as §1

Measured: log2 fold change

SSX2 (UniProt Q16385)
inactive: erlotinib -0.004 | [1] 0.177 | [2] 0.024 | [3] -0.001 | [4] -0.034 | [5] 0.011 | [6] -0.006 | [7] -0.056 | [8] -0.054 | IRAK-1-4 Inhibitor I -0.024 | ibrutinib 0.057 | [9] 0.058 | ralimetinib 0.036 | [10] 0.058 | [11] 0.01 | [12] -0.015 | [13] 0.004 | [14] -0.02 | [15] -0.036 | [16] -0.045

SPIRE1 (UniProt Q08AE8)
inactive: erlotinib -0.062 | [1] 0.054 | [2] -0.032 | [3] 0.068 | [4] -0.067 | [5] 0.027 | [6] 0.022 | [7] 0.013 | [8] -0.024 | IRAK-1-4 Inhibitor I -0.032 | ibrutinib 0.082 | [9] -0.031 | ralimetinib -0.028 | [10] 0.011 | [11] -0.014 | [12] -0.069 | [13] 0.002 | [14] 0.014 | [15] 0.016 | [16] -0.05

STARD3 isoform 3 (UniProt Q14849)
inactive: erlotinib -0.014 | [1] 0.104 | [2] -0.022 | [3] -0.085 | [4] -0.078 | [5] -0.003 | [6] 0.107 | [7] -0.085 | [8] 0.133 | IRAK-1-4 Inhibitor I 0.047 | ibrutinib 0.039 | [9] 0.044 | ralimetinib -0.074 | [10] -0.018 | [11] 0.011 | [12] 0.033 | [13] -0.072 | [14] 0.073 | [15] 0.021 | [16] 0.028

STARD10 (UniProt Q9Y365)
inactive: erlotinib -0.004 | [1] -0.026 | [2] 0.018 | [3] -0.047 | [4] -0.022 | [5] 0 | [6] 0.036 | [7] -0.012 | [8] -0.012 | IRAK-1-4 Inhibitor I -0.026 | ibrutinib 0.028 | [9] -0.027 | ralimetinib -0.018 | [10] -0.087 | [11] -0.018 | [12] -0.031 | [13] 0.14 | [14] 0.005 | [15] 0.148 | [16] -0.015

SPTLC2 (UniProt O15270)
inactive: erlotinib -0.017 | [1] 0.053 | [2] 0.034 | [3] -0.031 | [4] 0.002 | [5] -0.026 | [6] -0.019 | [7] -0.024 | [8] 0.008 | IRAK-1-4 Inhibitor I 0.045 | ibrutinib -0.074 | [9] -0.013 | ralimetinib 0.012 | [10] -0.043 | [11] -0.003 | [12] -0.019 | [13] 0.014 | [14] 0.087 | [15] -0.01 | [16] 0.012

SRPK1 (UniProt Q96SB4)
inactive: erlotinib 0.015 | [1] -0.04 | [2] 0.121 | [3] 0.016 | [4] 0.003 | [5] 0.05 | [6] 0.017 | [7] -0.01 | [8] 0.007 | IRAK-1-4 Inhibitor I 0.019 | ibrutinib 0.031 | [9] 0.008 | ralimetinib -0.004 | [10] -0.001 | [11] -0.005 | [12] -0.004 | [13] -0.018 | [14] 0.006 | [15] -0.029 | [16] 0.011

SPIN1 (UniProt Q9Y657)
inactive: erlotinib 0.024 | [1] 0 | [2] -0.021 | [3] -0.074 | [4] 0.079 | [5] 0.026 | [6] -0.156 | [7] 0.036 | [8] 0.023 | IRAK-1-4 Inhibitor I -0.042 | ibrutinib 0.088 | [9] 0.092 | ralimetinib 0.004 | [10] -0.01 | [11] -0.002 | [12] -0.062 | [13] -0.031 | [14] 0.037 | [15] 0.004 | [16] -0.099

SPC24 (UniProt Q8NBT2)
inactive: erlotinib 0.002 | [1] 0.004 | [2] -0.015 | [3] 0.008 | [4] 0.002 | [5] -0.003 | [6] 0.002 | [7] 0.018 | [8] -0.001 | IRAK-1-4 Inhibitor I -0.003 | ibrutinib 0.054 | [9] -0.002 | ralimetinib 0.001 | [10] -0.008 | [11] 0 | [12] -0.001 | [13] 0.01 | [14] 0.007 | [15] -0.008 | [16] -0.021

SPECC1L (UniProt Q69YQ0)
inactive: erlotinib -0.006 | [1] -0.009 | [2] 0.026 | [3] 0.009 | [4] 0.006 | [5] -0.005 | [6] -0.038 | [7] 0 | [8] 0.09 | IRAK-1-4 Inhibitor I 0.028 | ibrutinib 0.033 | [9] -0.017 | ralimetinib -0.025 | [10] -0.023 | [11] -0.023 | [12] -0.019 | [13] -0.009 | [14] 0.007 | [15] -0.001 | [16] -0.027

Copied from above (two entries):
SPTLC2 (UniProt O15270)
inactive: erlotinib -0.017 | [1] 0.053 | [2] 0.034 | [3] -0.031 | [4] 0.002 | [5] -0.026 | [6] -0.019 | [7] -0.024 | [8] 0.008 | IRAK-1-4 Inhibitor I 0.045 | ibrutinib -0.074 | [9] -0.013 | ralimetinib 0.012 | [10] -0.043 | [11] -0.003 | [12] -0.019 | [13] 0.014 | [14] 0.087 | [15] -0.01 | [16] 0.012

SRPK1 (UniProt Q96SB4)
inactive: erlotinib 0.015 | [1] -0.04 | [2] 0.121 | [3] 0.016 | [4] 0.003 | [5] 0.05 | [6] 0.017 | [7] -0.01 | [8] 0.007 | IRAK-1-4 Inhibitor I 0.019 | ibrutinib 0.031 | [9] 0.008 | ralimetinib -0.004 | [10] -0.001 | [11] -0.005 | [12] -0.004 | [13] -0.018 | [14] 0.006 | [15] -0.029 | [16] 0.011

The results go on:

SPATA5 (UniProt Q8NB90)
inactive: erlotinib 0.04 | [1] 0.025 | [2] -0.006 | [3] 0.025 | [4] -0.042 | [5] 0.042 | [6] 0.015 | [7] 0.017 | [8] 0.017 | IRAK-1-4 Inhibitor I 0.016 | ibrutinib 0.013 | [9] -0.002 | ralimetinib 0.047 | [10] 0.025 | [11] 0.02 | [12] -0.009 | [13] 0.009 | [14] 0.002 | [15] 0.042 | [16] 0.012

SPRY4 (UniProt Q9C004)
inactive: erlotinib -0.012 | [1] 0.096 | [2] 0.002 | [3] -0.017 | [4] 0 | [5] 0.004 | [6] -0.021 | [7] 0.045 | [8] -0.002 | IRAK-1-4 Inhibitor I 0.038 | ibrutinib 0 | [9] 0.003 | ralimetinib 0 | [10] -0.065 | [11] 0.005 | [12] -0.048 | [13] -0.034 | [14] 0.056 | [15] -0.023 | [16] -0.045

SRPRB (UniProt Q9Y5M8)
inactive: erlotinib -0.004 | [1] 0.029 | [2] 0.021 | [3] -0.011 | [4] -0.041 | [5] -0.003 | [6] -0.021 | [7] -0.053 | [8] -0.035 | IRAK-1-4 Inhibitor I -0.033 | ibrutinib 0.003 | [9] -0.039 | ralimetinib -0.016 | [10] 0.032 | [11] -0.057 | [12] -0.014 | [13] -0.014 | [14] -0.009 | [15] -0.005 | [16] -0.01

SRSF11 (UniProt Q05519)
inactive: erlotinib -0.008 | [1] 0.008 | [2] -0.07 | [3] -0.002 | [4] -0.02 | [5] -0.006 | [6] 0.035 | [7] 0.003 | [8] -0.017 | IRAK-1-4 Inhibitor I -0.004 | ibrutinib 0.03 | [9] 0.023 | ralimetinib 0.002 | [10] 0.011 | [11] 0.019 | [12] 0.003 | [13] -0.001 | [14] -0.03 | [15] -0.003 | [16] 0.02

SRGAP2 (UniProt O75044)
inactive: erlotinib 0.006 | [1] 0.005 | [2] 0.021 | [3] 0.002 | [4] 0.012 | [5] 0.013 | [6] 0.026 | [7] -0.007 | [8] -0.012 | IRAK-1-4 Inhibitor I -0.011 | ibrutinib 0.028 | [9] 0.015 | ralimetinib 0 | [10] -0.025 | [11] -0.016 | [12] -0.009 | [13] -0.014 | [14] -0.011 | [15] 0.057 | [16] -0.003

STAM (UniProt Q92783)
inactive: erlotinib -0.026 | [1] 0.026 | [2] 0.011 | [3] 0 | [4] -0.004 | [5] 0.042 | [6] 0.05 | [7] 0.024 | [8] 0.007 | IRAK-1-4 Inhibitor I 0.03 | ibrutinib -0.008 | [9] -0.009 | ralimetinib -0.018 | [10] 0.032 | [11] -0.003 | [12] -0.001 | [13] 0.007 | [14] -0.005 | [15] -0.012 | [16] -0.021

SRRT (UniProt Q9BXP5)
inactive: erlotinib 0.039 | [1] 0.023 | [2] -0.005 | [3] 0.041 | [4] 0.004 | [5] 0.022 | [6] -0.03 | [7] -0.005 | [8] -0.011 | IRAK-1-4 Inhibitor I 0.004 | ibrutinib 0.013 | [9] 0 | ralimetinib 0.026 | [10] 0.006 | [11] -0.01 | [12] -0.024 | [13] -0.012 | [14] -0.008 | [15] 0.043 | [16] -0.001
